Test results as given in the supplement of paper PMC4604168 (melanoma cell lines).
This is one part of the list. Many values rest on one well or one pass, so single values are uncertain.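 Imaging used 1,536-well plates; nuclei positive for cleaved PARP by antibody were divided by total DNA-stained nuclei to yield the apoptosis fraction. Doses for screening kept most cells viable, and cell lines differ markedly in resting and induced cleaved-PARP levels.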

Test system: RPMI7951
Experiment: cleaved PARP positive nuclei fraction relative to DMSO control; melanoma cells; higher = more apoptosis
Conditions: library dose: low library concentration; 72 h

Point of comparison: Cc1ccc(NC(=O)c2cccc(N(C)C)c2)cc1NC(=O)c1ccc(O)cc1 + O=c1cc(-c2cccc3c2Sc2ccccc2S3)oc(N2CCOCC2)c1 [KU55933] (first compound 2 µM, partner dose 1 µM), “cleaved PARP positive nuclei fraction” value 108%. Against it:
- C[C@@H]1CCN(C(=O)CC#N)C[C@@H]1N(C)c1ncnc2[nH]ccc12 + CC(C)CCN1c2nc(Nc3cc(F)c(O)c(F)c3)ncc2N(C)C(=O)C1C [BID1870] (first compound 1 µM, partner dose 0.2 µM) — lower, 82.3%
- Cn1nnc2c(C(N)=O)ncn2c1=O [temozolomide] + COc1ccc(-c2ccc3c(N4CCOCC4)nc(N4C[C@@H](C)O[C@@H](C)C4)nc3n2)cc1CO [KU0063794] (first compound 2 µM, partner dose 0.02 µM) — lower, 70.9%
- Nc1cccc2c1CN(C1CCC(=O)NC1=O)C2=O (configuration not stated) [lenalidomide] + CCN(CC)CCCCNc1ncc2cc(-c3cc(OC)cc(OC)c3)c(NC(=O)NC(C)(C)C)nc2n1 [PD173074] (first compound 1 µM, partner dose 0.1 µM) — lower, 39%
- Cc1nc(Nc2ncc(C(=O)Nc3c(C)cccc3Cl)s2)cc(N2CCN(CCO)CC2)n1 [dasatanib] + CCCCCCCCCCCC1=C(O)C(=O)C=C(O)C1=O [Embelin] (first compound 0.004 µM, partner dose 1.2 µM) — lower, 64.6%
- O=C(Nc1cccc(Cl)c1)Nc1ncc(CCNc2ncnc3ccsc23)s1 + Cn1cc(/C=C2\C(=O)Nc3cccnc32)c2ccccc21 [GW441756] (first compound 0.0008 µM, partner dose 0.4 µM) — lower, 35.8%
- Nc1cccc2c1CN(C1CCC(=O)NC1=O)C2=O (configuration not stated) [lenalidomide] + COc1ccc(COc2ccc(Cc3cnc(N)nc3N)cc2OC)cc1 [GW2580] (first compound 1 µM, partner dose 1 µM) — lower, 39.7%
- OCCn1cc(-c2cnc3nnn(Cc4ccc5ncccc5c4)c3n2)cn1 + Cc1cc([N+](=O)[O-])ccc1NS(=O)(=O)c1cc(Cl)ccc1Cl [FH535] (first compound 1 µM, partner dose 1 µM) — lower, 82.2%
- Cn1cncc1[C@@](N)(c1ccc(Cl)cc1)c1ccc2c(c1)c(-c1cccc(Cl)c1)cc(=O)n2C [tipifarnib] + O=c1cc(-c2cccc3c2Sc2ccccc2S3)oc(N2CCOCC2)c1 [KU55933] (first compound 0.01 µM, partner dose 1 µM) — lower, 95.6%
- NC(=O)Nc1cc(-c2cccc(F)c2)sc1C(=O)N[C@H]1CCCNC1 + c1cc(-c2cnn3cc(-c4ccc(OCCN5CCCCC5)cc4)cnc23)ccn1 [Dorsomorphin] (first compound 0.02 µM, partner dose 0.4 µM) — lower, 53%
- O=C(Nc1cccc(Cl)c1)Nc1ncc(CCNc2ncnc3ccsc23)s1 + CCc1ccc(CCOc2ccc(CC3SC(=O)NC3=O)cc2)nc1 [pioglitazone] (first compound 0.0008 µM, partner dose 2 µM) — higher, 112%
- C[C@]1(c2nc3c(C(N)=O)cccc3[nH]2)CCCN1 [Veliparib] + COc1ccc2c(c1)CCC1C2CCC2(C)C(NCCCCCCN3C(=O)C=CC3=O)CCC12 [U73122] (first compound 1.4 µM, partner dose 0.4 µM) — lower, 76.5%
- C[C@@H]1CCN(C(=O)CC#N)C[C@@H]1N(C)c1ncnc2[nH]ccc12 + COc1ccc2c(c1)CCC1C2CCC2(C)C(NCCCCCCN3C(=O)C=CC3=O)CCC12 [U73122] (first compound 1 µM, partner dose 0.4 µM) — lower, 42.5%
- OCCn1cc(-c2cnc3nnn(Cc4ccc5ncccc5c4)c3n2)cn1 + COC(=O)c1sccc1S(=O)(=O)Nc1ccc(Nc2ccccc2)cc1OC [GSK0660] (first compound 1 µM, partner dose 1 µM) — higher, 141%
- O=C(Nc1cccc(Cl)c1)Nc1ncc(CCNc2ncnc3ccsc23)s1 + Oc1nc(-c2ccc(C(F)(F)F)cc2)nc2c1CSCC2 [XAV939] (first compound 0.0008 µM, partner dose 2 µM) — higher, 140%
- O=C(Nc1cccc(Cl)c1)Nc1ncc(CCNc2ncnc3ccsc23)s1 + COc1cc2ncnc(Nc3ccc(Oc4ccccc4)cc3)c2cc1OC [SrcI1] (first compound 0.0008 µM, partner dose 2 µM) — higher, 115%
- COc1cc(Nc2ncc(F)c(Nc3ccc4c(n3)NC(=O)C(C)(C)O4)n2)cc(OC)c1OC [Tamatinib] + COc1cc(N2CCC(N3CCN(C)CC3)CC2)ccc1Nc1ncc(Cl)c(Nc2ccccc2S(=O)(=O)C(C)C)n1 [NVP-TAE684] (first compound 0.4 µM, partner dose 0.08 µM) — lower, 62.5%
